In PubChem BioAssay AID493014 (National Center for Advancing Translational Sciences (NCATS), 2011):
This is one part of the list. Shown are side measurements of this screen, not its main read-out; they come without a call. The list favours compounds with an active or inconclusive main result. Potencies come from curve fits of mixed quality, noted in brackets.

Assay: qHTS Assay to Find Inhibitors of Chronic Active B-Cell Receptor Signaling
Conditions: ABC-DLBCL IkBa-CBG/CBR reporter, luminescence ratio (green luciferase fused to IkBa over red control in TMD8 lymphoma cells), 4 h
Summary of the method: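 TMD8 human ABC-DLBCL cells with doxycycline-inducible IκBα–green luciferase fusion and unfused red luciferase, in 0.5% FBS medium; compounds up to 46 uM, 4 h at 37C. Green/red luminescence ratio, filter-overlap corrected, fitted to concentration-response curves.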

[1] = measured here: CBR red luminescence, cell number
[2] = measured here: IkBa-CBG green luminescence

Row | SMILES | AC50 [1] | AC50 [2]
1 | CC(C)Nc1c(N)c(=O)oc2ccccc12 | 10 µM [falling, partial curve] | –
2 | CC1CCN(C(=O)c2cc(-c3ccco3)on2)CC1 | 0.794 µM [rising, full curve, poor fit] | –
3 | Cc1ccc(CN(Cc2ccco2)C(=S)NCC(=O)NCc2cccnc2)cc1 | 0.224 µM [falling, full curve, poor fit] | –
4 | COc1cccc(-c2sc3ccc(OC)cc3c2C#CCCO)c1 | 4.11 µM [rising, full curve, poor fit] | –
5 | Nc1cc(C(=O)OCC(=O)Nc2cccc(S(=O)(=O)N3CCOCC3)c2)ccc1Cl | 16.4 µM [falling, single point] | –
6 | COc1ccc(-c2cc(C(=O)NCc3ccccc3)no2)cc1OC | 10 µM [falling, partial curve] | –
7 | CCc1ccc(OC(=O)c2ccn(CC)n2)cc1 | 11.2 µM [rising, single point] | –
8 | CCOc1ccccc1N1CCN(C(=O)c2ccc(Cl)c(S(=O)(=O)N3CCCCC3)c2)CC1 | 14.6 µM [falling, partial curve, poor fit] | –
9 | c1cn(C23CC4CC(CC(C4)C2)C3)cn1 | 20.6 µM [rising, single point] | –
10 | C=CCOc1c(Cl)cc(/C=N/O)cc1OC | 10 µM [rising, partial curve] | –
11 | Cc1nc([N+](=O)[O-])cn1-c1ccc(N)cc1 | 32.6 µM [rising, partial curve, poor fit] | –
12 | Cc1ccc(C(=O)NCCSc2ccc(Cl)cc2)cc1[N+](=O)[O-] | 0.562 µM [rising, full curve] | –
13 | Cc1cccc(NC(=O)C(C)N2C(=O)C3C4CC(C(Br)C4Br)C3C2=O)c1 (stereo unspecified) | 35.5 µM [falling, single point] | –
14 | CCOc1cc(C=C(C(=O)OC)C(=O)OC)ccc1OCc1ccc([N+](=O)[O-])cc1 | 8.2 µM [falling, partial curve] | –
15 | Cc1csc(NC(=O)CCC(=O)N(CC(=O)NC2CCCCC2)c2ccccc2)n1 | 6.31 µM [falling, full curve] | –
16 | CC[C@]12c3[nH]c4ccc(Cl)cc4c3CCN1C(=O)[C@@H](CC(=O)NCc1cccc(C(F)(F)F)c1)C[C@@H]2C(=O)N1CCN(C(=O)c2ccco2)CC1 | 3.26 µM [falling, full curve] | 7.31 µM [rising, partial curve, poor fit]
17 | CN1C(=O)NC(c2cccc([N+](=O)[O-])c2)C2=C1CCCC2=O (stereo unspecified) | 20 µM [falling, single point] | –
18 | O=C(Nc1nc2ccccc2[nH]1)C12CC3CC(CC(C3)C1)C2 | 6.51 µM [rising, single point] | –
19 | Cc1cc(Cl)cc2sc(NC(=O)c3ccco3)nc12 | 11.2 µM [falling, partial curve] | –
20 | C=C(C)C(C)(C#CCN1CCCC1)OC(C)=O (stereo unspecified) | 13 µM [falling, partial curve, poor fit] | –
21 | CCC1CCCCN1S(=O)(=O)c1ccc(NC(=O)c2nc(S(C)(=O)=O)ncc2Cl)cc1 (stereo unspecified) | 35.5 µM [falling, single point] | –

Row | SMILES | AC50 [1] | AC50 [2]
22 | CCCCC#Cc1ccc(C(=O)NNC(=O)Nc2cc(Cl)cc(Cl)c2)o1 | 35.5 µM [falling, partial curve, poor fit] | –
23 | NC(=S)NN=C(Cc1ccccc1)Cc1ccccc1 | 25.1 µM [falling, single point] | 17.8 µM [falling, single point]
24 | COc1ccccc1Oc1ccc(NC(=O)c2ccccc2)cc1 | 15.8 µM [falling, single point] | –
25 | C#CCOCCOCCOCCNc1nc(N2CCN(C(=O)CCCCCCCCCCNC(=O)[C@@H](CCC(=O)O)n3cc(CCCCCN)nn3)CC2)nc(N2CCN(C(=O)CCCCCCCCCCNC(=O)[C@H](CO)n3cc(CCCCCN)nn3)CC2)n1 | 20.6 µM [rising, partial curve, poor fit] | –
26 | O=S(=O)(c1ccc(Cl)cc1)n1cccn1 | 4.47 µM [rising, partial curve, poor fit] | –
27 | O=C(NC1CCCCC1)c1ccc(S(=O)(=O)c2ccccc2Cl)c([N+](=O)[O-])c1 | 32.6 µM [rising, partial curve, poor fit] | –
28 | O=C(/C=C1\NC2(CCCC2)Cc2ccccc21)C(=O)N/N=C/c1ccc(O)c(O)c1 | 13 µM [falling, partial curve] | –
29 | CCN1CCN(Cc2c(O)ccc3c2O/C(=C\C=C\c2ccccc2OC)C3=O)CC1 | 3.26 µM [falling, partial curve] | –
30 | CC(=O)Nc1cccc(NC(=O)COc2ccc3c(c2)OCO3)c1 | 3.98 µM [falling, full curve] | –
31 | COc1ccc(-c2ccc(-c3nnc(Cc4ccc(OC)c(OC)c4)o3)cc2)cc1 | 35.5 µM [rising, single point] | –
32 | COCCNC(=O)c1ccc2c(c1)ncn2-c1ccc(F)c(F)c1 | 3.98 µM [rising, full curve] | –
33 | N#Cc1ccc(-c2csc(NNC(=O)c3ccccc3)n2)cc1 | 35.5 µM [rising, single point] | –
34 | OCCNCCSc1nc(C2CCCCC2)n(-c2ccccc2Cl)n1 | 22.4 µM [falling, partial curve, poor fit] | –
35 | Cc1cc(NC(=O)c2ccccc2)n(-c2nc3ccccc3[nH]2)n1 | 0.251 µM [falling, full curve, poor fit] | –
36 | Cc1onc(-c2ccc3c(c2)OCO3)c1-c1ccc2[nH]ccc2c1 | 25.1 µM [falling, partial curve, poor fit] | –
37 | CCCCn1c(N)c(N(C)C(=O)c2ccc(-n3cccn3)cc2)c(=O)[nH]c1=O | 29.1 µM [falling, single point] | 29.1 µM [rising, partial curve, poor fit]
38 | CC(=O)NCc1ccc(C(=O)CCl)cc1 | 35.5 µM [falling, single point] | –
39 | Cc1ccc(-n2nc(C(=O)O)cc2-c2ccccc2Cl)cc1 | 10 µM [rising, partial curve, poor fit] | –
40 | O=C(CSc1nc2ccccc2[nH]1)Nc1nc(-c2cccc(Br)c2)cs1 | 5.17 µM [rising, full curve, poor fit] | –
41 | Cc1cc(NC(=O)c2ccc(F)cc2)n(-c2ccccc2)n1 | 15.8 µM [rising, single point] | –
42 | O=C(Nc1cccc(S(=O)(=O)NC2=NCCC2)c1)c1ccc(=O)[nH]c1 | 6.51 µM [rising, single point] | –

Row | SMILES | AC50 [1] | AC50 [2]
43 | O=C(NCC(c1cccs1)N1CCOCC1)c1ccccc1NS(=O)(=O)c1ccc(Cl)c([N+](=O)[O-])c1 (stereo unspecified) | 8.2 µM [falling, partial curve, poor fit] | –
44 | CC1=C(C(=O)OC2CCCCCCC2)C(c2cccc(O)c2)NC(=O)N1 (stereo unspecified) | 0.461 µM [falling, full curve, poor fit] | –
45 | CSc1nnc(-c2cc3c(-c4ccccc4)nn(C)c3s2)n1C | 3.55 µM [falling, full curve, poor fit] | –
46 | Nc1cc(Oc2ccc(Cl)cc2Cl)nc(N)n1 | 15.8 µM [rising, partial curve, poor fit] | –
47 | COC(c1ccccc1)c1nnc(CCC(=O)N2CCCCCCC2)o1 (stereo unspecified) | – | 12.6 µM [rising, partial curve, poor fit]
48 | N#C/C(=C\c1ccc2c(c1)OCCO2)C(=O)Nc1ccc(C(=O)O)cc1 | 2.82 µM [falling, full curve] | –
49 | CC(=O)c1sc(NC(=O)c2ccccc2C)nc1C | 1.26 µM [falling, full curve] | –
50 | Cc1cc(N/C=C/C(=O)c2ccccc2)ccc1Br | 2.82 µM [falling, partial curve, poor fit] | –
51 | CC(C)[C@H](NC(=O)[C@@H]1Cc2c([nH]c3ccccc23)C2c3ccccc3C(=O)N21)C(=O)NCC1CCCO1 (stereo partly specified) | 11.2 µM [falling, single point] | –
52 | C=CCN1N=C(/C=C/c2ccc(C)cc2)CCC1=O | 11.2 µM [rising, partial curve] | –
53 | CCOC(=O)Cc1c(C)nc2cc(-c3ccc(C(C)(C)C)cc3)[nH]n2c1=O | 0.0731 µM [rising, full curve, poor fit] | –
54 | Brc1ccc(-c2nnc(-c3ccccc3)o2)o1 | 16.4 µM [falling, single point] | –
55 | Nc1nn(-c2cccc(F)n2)cc1-c1ccccc1 | 11.2 µM [falling, partial curve] | –
56 | CC(OC(=O)c1ccc(CN2CCCC2=O)cc1)C(=O)Nc1ccc(Cl)cc1 (stereo unspecified) | 29.1 µM [rising, single point] | –
57 | Cn1c(CCNC(=O)c2ccco2)nc2cc(NC(=O)c3ccccc3Cl)ccc21 | 11.2 µM [falling, partial curve, poor fit] | –
58 | COc1cccc(C(=O)Nc2ccc3[nH]ncc3c2)c1 | 15.8 µM [falling, partial curve, poor fit] | –
59 | CCOc1ccc(NC(=O)c2cccc(OC(=S)N3CCC(C)CC3)c2)cc1 | 35.5 µM [falling, single point] | –
60 | COc1ccc(NC(=O)CSc2nccn2Cc2ccccc2)c(OC)c1 | 10 µM [falling, partial curve] | –
61 | O=C(Cn1cnc2c(NCc3ccccc3)ncnc21)NCc1ccccc1 | 18.4 µM [rising, single point] | 20.6 µM [falling, single point]
62 | CN(CCNC(=O)c1cc2c(=O)n(C)c3ccccc3c2n1C)Cc1ccccc1 | 14.6 µM [falling, partial curve, poor fit] | –

Looked up one by one from the list above:
Row | SMILES | AC50 [1] | AC50 [2]
55 | Nc1nn(-c2cccc(F)n2)cc1-c1ccccc1 | 11.2 µM [falling, partial curve] | –
53 | CCOC(=O)Cc1c(C)nc2cc(-c3ccc(C(C)(C)C)cc3)[nH]n2c1=O | 0.0731 µM [rising, full curve, poor fit] | –
58 | COc1cccc(C(=O)Nc2ccc3[nH]ncc3c2)c1 | 15.8 µM [falling, partial curve, poor fit] | –
